# Screen size: about 320,000 compounds; about 2,100 (0.66%) were called active. This list was built around the results that the source calls inconclusive (neither active nor inactive); the mix of calls is not that of the screen. The call rests on the fitted dose curve; in most records, active means well fitted inhibition curve with a large enough effect in the signal ratio, with a control signal flat (not every such curve was filed as active); inconclusive means small, poorly fitted or top-dose-only effect, or effect the other way, or a change in a side signal; inactive means flat fitted curve, though single readings scatter; the % refers to the signal ratio. Potencies beside an inconclusive call are fits to weak or partial responses and may not hold up.
# Test: qHTS Assay for Lipid Storage Modulators in Drosophila S3 Cells
# Settings: BODIPY lipid droplet fluorescence, 18-24 h, cells fed with added oleic acid; lipid storage change, negative = inhibition: at 46.1 µM (top of the series) unless noted
# Outline: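 Drosophila S3 cells loaded with oleic acid (400 uM, as added) and compounds at several concentrations; lipid droplets imaged by 488-nm laser-scanning cytometry, 500–530 nm intensity and object ratio to cell channel. Percent activity normalized to 20 uM Triacsin C.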
# On the % scale 0 is the no-effect control and ±100 the full control effect; potency means the concentration at half of the fitted maximal effect.
Structure (SMILES),Potency,"lipid storage change, negative = inhibition"
Cc1[nH]ncc1-c1nc2ccccc2[nH]1,"inconclusive: 411 nM [activator, full curve, poor fit]",–
COc1ccc(N(C)C(=O)c2cc3c(s2)-c2c(C)cccc2OC3)c(OC)c1,"inconclusive: 11600 nM [activator, partial curve]",–
Clc1ccccc1-c1nc2nc3ccccc3nc2n1-c1ccc2c(c1)OCO2,"inconclusive: 1300 nM [rising, full curve]",–
CC(c1ccccc1)n1cc(C(=O)NCc2cccnc2)nn1 (configuration not stated),"inconclusive: 6510 nM [rising, single point]",–
CS(=O)(=O)N(CC(=O)NC1CCCC1)Cc1ccc(F)cc1,"inconclusive: 116 nM [falling, full curve, poor fit]",–
Cc1ccc(C(=O)O)cc1NC(=S)NC(=O)Cc1ccccc1,–,inconclusive: -21.9%
CCOC(=O)CSC1=C(C#N)C(=O)NC(c2ccc(OC)cc2)S1 (configuration not stated),–,inconclusive: -26.1%
C=CCn1c(=NC(=O)c2cccs2)sc2cccc(OC)c21,"inconclusive: 291 nM [activator, partial curve]",–
COc1ccc(-c2ccc(-c3noc(C(C)C)n3)c(OC)n2)cc1,–,inconclusive: 42.6%
COc1ccc(CC(=O)O/N=C(\N)Cc2ccc([N+](=O)[O-])cc2)cc1,–,inconclusive: -2.09%
COc1ccc(CNC(=O)CCc2ccc(S(=O)(=O)N3CCCCCC3)cc2)cc1OC,"inconclusive: 651 nM [falling, single point]",–
O=C1NC2(CCCCCC2)C(=O)N1Cc1ccc(F)cc1Cl,"inconclusive: 6510 nM [activator, single point]",–
Cc1cc(NC(=O)CSCC(=O)OCc2nnc(-c3ccccc3)o2)no1,–,inconclusive: 9.85%
Cc1cccn2c(=O)cc(CSc3nnc(NC(=O)COc4ccccc4)s3)nc12,"inconclusive: 3260 nM [activator, partial curve]",–
CCOc1ccc(-n2c(C)nc3cc(C(=O)NCc4ccco4)ccc32)cc1,"inconclusive: 231 nM [activator, full curve]",–
C=CCNC(=S)NN(c1ccccc1)c1ccccc1,–,inconclusive: -32%
CCCNC(=O)/C=C/c1ccc(C(C)C)cc1,–,inconclusive: 4.53%
Cc1c(CCC(=O)O)c(=O)oc2cc(OCc3ccccc3Br)ccc12,–,inconclusive: 25.3%
COC(=O)c1ccc(NC(=O)CCN2C(=O)NC(C)(C)C2=O)cc1,–,inconclusive: -5.22%
O=C(COC(=O)Cc1ccc(Br)cc1)Nc1ccc(N2CCOCC2)cc1,–,inconclusive: -18.3%
N#CC1(NC(=O)COC(=O)c2ccccc2SCC(=O)N2CCCC2)CCCCC1,–,inconclusive: -41%
COc1ccc(OC)c(-n2c(N)c(C(=O)NCC3CCCO3)c3nc4ccccc4nc32)c1 (configuration not stated),"inconclusive: 2060 nM [activator, partial curve]",–
CCn1nc(C)c(CNC(=O)Nc2ccccc2C(=O)OC)c1C,–,inconclusive: 62.5%
Cn1cccc1C(=O)C(=O)Nc1ccc(F)c(F)c1,–,inconclusive: -72.8%
CCCCn1c(N)c(N(CC(C)C)C(=O)c2ccncc2)c(=O)[nH]c1=O,–,inconclusive: 0.397%
COc1ccccc1C(C)N(C)Cc1nc(COc2ccccc2)no1 (configuration not stated),–,inconclusive: 38.5%

Structure (SMILES),Potency,"lipid storage change, negative = inhibition"
O=C(CCS(=O)(=O)c1ccccc1)Nc1nc(-c2ccc(F)cc2)cs1,–,inconclusive: -2.99%
Cc1cc(C(=O)Nc2cccc(S(=O)(=O)N3CCCC3)c2)c2ccccc2n1,"inconclusive: 580 nM [falling, single point]",–
CCc1ccc(OCC(=O)NNC(=S)NC(=O)C2CCCCC2)c(Br)c1,–,inconclusive: 9.61%
O=S(=O)(CCN1CCN(c2ccccc2O)CC1)c1cc(Cl)ccc1Cl,–,inconclusive: -1.3%
COC(=O)[C@H]1Cc2cnoc2C[C@]1(C)C(=O)O,–,inconclusive: -15.6%
C=CCS(=O)(=O)N1CCC(CCOc2ccccc2)(C(=O)OCC)CC1,–,inconclusive: -21%
CCOC(=O)c1c(NC(=O)CCNCc2ccco2)sc2c1CCC2,–,inconclusive: -11%
CC1CCC(C(C)C)C(OC(=O)CSc2n[nH]c(=O)[nH]c2=O)C1 (configuration not stated),–,inconclusive: -0.416%
O=C(CCl)Nc1cn(-c2ccccc2)nc1-c1ccc(F)cc1,–,inconclusive: 36%
COC(=O)CC1C(=O)NCCN1C(=O)c1cc(OC)c(OC)cc1OC (configuration not stated),–,inconclusive: 30%
CCC1(CC)N([O-])C(C)=C(c2ccccc2)[N+]1=O,–,inconclusive: -7.73%
CCN(c1ccccc1C)S(=O)(=O)c1nnc(NC(=O)c2ccco2)s1,–,inconclusive: -20.7%
C/C=C(/C)C(=O)OC(C)(C)[C@@H]1Cc2c(ccc3ccc(=O)oc23)O1,–,inconclusive: 7.42%
COCC(=O)Nc1ccc2nc3n(c(=O)c2c1)CCCCC3,–,inconclusive: 9.87%
O=C(NCCc1csc(-c2cccnc2)n1)c1ccc(Br)o1,"inconclusive: 116 nM [rising, full curve, poor fit]",–
Cc1ccc(NC(=S)NC(=O)c2ccc(-c3ccccc3)cc2)c(C)c1,–,inconclusive: -57.9%
Cc1nnc2sc(SCC(=O)Nc3cccc(Cl)c3)nn2c1=O,"inconclusive: 1460 nM [falling, partial curve, poor fit]",–
Cc1ccc(C2(c3ccc(C)cc3)CC2C(=O)NC(C)C)cc1 (configuration not stated),–,inconclusive: 58%
O=C1CN(C(=O)CSc2nc3ccccc3c(=O)n2Cc2ccc(F)cc2)c2ccccc2N1,–,inconclusive: -15%
COc1ccc(NC(=O)C(=O)NCCCO)cc1Cl,–,inconclusive: -16.3%
C/C(=N\NS(=O)(=O)c1ccccc1)c1cccc(NC(=O)c2cccc(Cl)c2)c1,–,inconclusive: -23.9%
C=CCn1c(O)c(C(CC)=NCc2cccnc2)c(=O)[nH]c1=O,–,inconclusive: 11.4%
Cc1nc2ccc(NC(=O)Cc3c(F)cccc3Cl)cc2s1,–,inconclusive: 32.7%
O=C(Cn1ccc(NC(=O)OCc2ccccc2)nc1=O)NCc1nc2ccccc2[nH]1,"inconclusive: 29100 nM [falling, single point]",–
COc1ccccc1-c1nnc(NC(=O)CCS(=O)(=O)c2ccccc2)o1,–,inconclusive: 5.35%
Clc1ccc(-n2ncc3c(NCCCn4ccnc4)ncnc32)cc1,"inconclusive: 517 nM [activator, partial curve, poor fit]",–

# Arranged by count of non-hydrogen atoms (largest number first): three of the compounds above.
Structure (SMILES),Potency,"lipid storage change, negative = inhibition"
Cc1cc(C(=O)Nc2cccc(S(=O)(=O)N3CCCC3)c2)c2ccccc2n1,"inconclusive: 580 nM [falling, single point]",–
CCOC(=O)CSC1=C(C#N)C(=O)NC(c2ccc(OC)cc2)S1 (configuration not stated),–,inconclusive: -26.1%
COc1ccc(NC(=O)C(=O)NCCCO)cc1Cl,–,inconclusive: -16.3%

# Another view of part of the listing above.
Structure (SMILES) | Potency | lipid storage change, negative = inhibition
Cc1nnc2sc(SCC(=O)Nc3cccc(Cl)c3)nn2c1=O | inconclusive: 1460 nM [falling, partial curve, poor fit] | –
C=CCn1c(O)c(C(CC)=NCc2cccnc2)c(=O)[nH]c1=O | – | inconclusive: 11.4%

# The list goes on:

Structure (SMILES),Potency,"lipid storage change, negative = inhibition"
COc1ccc(/C=N/NC(=O)C(C)n2cnc3ccccc3c2=O)cc1OC (configuration not stated),"inconclusive: 3260 nM [activator, partial curve, poor fit]",–
CCOc1cc(C(=O)CCC(=O)OCC(=O)Nc2ccc(F)cc2)ccc1O,–,inconclusive
C=C(C)COc1ccc(-c2[nH]ncc2Oc2ccc(OC)cc2)c(O)c1,"inconclusive: 25900 nM [falling, single point]",–
O=C(Nc1nnc(Cc2ccccc2F)s1)Nc1ccccc1F,"inconclusive: 580 nM [activator, partial curve, poor fit]",–
COc1ccc(OC)c(S(=O)(=O)NCC(c2ccco2)S(=O)(=O)c2ccccc2)c1 (configuration not stated),–,inconclusive: 24.8%
CCOC(=O)CN1C(=O)C(CC)Oc2ccc(Cl)cc21 (configuration not stated),–,inconclusive: 3.1%
CC(C)(C)NC(=O)COc1ccc(S(=O)(=O)N2CCCC2)cc1,–,inconclusive: -40.7%
CCCCn1c(=N)n(CC(=O)c2ccc(Br)s2)c2ccccc21,–,inconclusive: -8.73%
CCc1ccccc1NC(=O)CSc1nnc(-c2ccco2)n1N,"inconclusive: 146 nM [activator, full curve, poor fit]",–
O=C(O)/C(=C\c1ccccc1OC(F)F)Sc1nnc(-c2ccc(F)cc2)o1,–,inconclusive: 31.5%
CCCOc1ccc(C(=O)CCC(=O)OC(C)C(=O)Nc2ccc(NC(C)=O)cc2)cc1 (configuration not stated),"inconclusive: 6510 nM [cytotoxic, single point]",–
O=C(Cn1cc([N+](=O)[O-])ccc1=O)N1CCCc2ccccc21,"inconclusive: 4.6 nM [falling, full curve, poor fit]",–
CCOCCCNC(=O)c1cc2c(s1)-c1ccccc1SC2,–,inconclusive: -3.27%
N/C(=N\OC(=O)Nc1ccc(Cl)cc1)c1ncc(C(F)(F)F)cc1Cl,"inconclusive: 6510 nM [falling, full curve]",–
Cc1ccc(S(=O)(=O)C(C)C(=O)NCCS(=O)(=O)c2ccc(Cl)cc2)cc1 (configuration not stated),–,inconclusive: -17%
COC(=O)CCC(=O)NN1C(=O)c2ccccc2C1=O,–,inactive
Cc1ccccc1N1C(=O)C2ON(c3ccccc3)C(c3ccncc3)C2C1=O (configuration not stated),–,inconclusive: -12.1%
CCCCCOc1ccc(CSc2n[nH]c(C)n2)cc1,"inconclusive: 23100 nM [falling, single point]",–
CS(=O)(=O)Nc1ccc([N+](=O)[O-])cc1Oc1ccccc1,–,inconclusive: 1.19%
COc1ccc(CCNC(=O)C2Cc3ccccc3C(=O)O2)cc1 (configuration not stated),–,inconclusive: -29.3%
COc1cc(CC(=O)Nc2ncc(C)s2)cc(OC)c1OC,"inconclusive: 291 nM [rising, full curve]",–
COc1ccc(C)cc1NS(=O)(=O)c1ccc2c(c1)NC(=O)C(C)S2 (configuration not stated),–,inconclusive: -34.2%
COc1ccc([C@H]2CC(=O)C=C(c3ccc(-c4ccccc4)c(F)c3)C2)cc1OC,"inconclusive: 146 nM [activator, full curve, poor fit]",–
CN1C(N)=NC(=O)/C1=C/c1ccc(F)cc1,–,inconclusive: 19%
Cc1ccc(NC(=O)CSCC(=O)N(CCC(C)C)c2c(N)n(Cc3ccccc3)c(=O)[nH]c2=O)cc1,–,inconclusive: 30.5% [activator] [at 0.0737 µM]

# — PubChem BioAssay AID2685 (National Center for Advancing Translational Sciences (NCATS), 2010)
